Assay results as given in article PMC3098143.
No constants are given. Whether binding was seen depends on the method and setting. Binding seen in cells or lysates may run through a third protein. Binding can be weak; no strength is given. Where a sequence is shown, tags or fusion partners need not be part of it.

T1: FLAG-TPR1 (tetratricopeptide repeat 1) (UniProt Q99614)
T1 sequence: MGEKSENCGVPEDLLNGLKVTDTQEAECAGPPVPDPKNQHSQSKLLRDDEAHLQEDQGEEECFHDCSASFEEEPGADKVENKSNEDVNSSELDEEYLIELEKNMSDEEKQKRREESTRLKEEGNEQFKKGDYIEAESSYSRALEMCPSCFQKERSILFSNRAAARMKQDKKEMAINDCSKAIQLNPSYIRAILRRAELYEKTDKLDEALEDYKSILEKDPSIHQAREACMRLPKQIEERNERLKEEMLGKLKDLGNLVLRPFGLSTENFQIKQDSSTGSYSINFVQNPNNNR

B1: FLAG-TPR1 (tetratricopeptide repeat 1) (protein, UniProt Q99614 1-292)
chain: T1 sequence

Assays:
[1] = molecular target: T1, FLAG-TPR1 (tetratricopeptide repeat 1); experiment: co-IP; HEK 293 co-transfected with Gα and FLAG-TPR1 cDNAs; cells treated with 0.5 mM dithiobis[succinimidylpropionate] before lysis in RIPA buffer; lysate on anti-FLAG affinity agarose gel at 4°C overnight; blot with anti-Gα16 or anti-Gαz
[2] = molecular target: Gα16QL (constitutively active Gα16) (human); experiment: co-IP; reverse direction, same lysates: IP with anti-Gα16 or anti-Gαz antiserum at 4°C overnight and protein G-agarose; blot with anti-FLAG

Molecule	binding [1]	binding [2]
Gα16QL (constitutively active Gα16) (human)	binds	–
B1	–	binds
